Measurements from “University of Dundee, Small-Polar-MMV Screening Library” (2021), ChEMBL document CHEMBL3988442.

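Whole-parasite assay of Trypanosoma brucei over 72 hours; the read-out is not stated. Concentration: 30 µM. Higher reads as stronger inhibition (inferred: compounds with an IC50 in retests scored well above the rest). Values scatter widely below zero; nearly all retest evidence comes from the higher of the two concentrations used. About 64,000 compounds were tested under these conditions; 1.5% (about 940) showed 50% or more at least once.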

The filed quantity is “Percent Effect” (%). The record does not define 0% and 100%; most values in the screen are far below 50% and negative numbers occur (in some assays of this library far below -100). Compounds were drawn at random from those tested, without regard to their results.

structure | effect
O=C(NC1CC1)c1cnc(-c2noc3cc(N4CCCCC4)ccc23)s1 | -75.93
Cc1ccnc(C2CCN(C(=O)c3cnn(C)c3)CC2)n1 | -2.497
COCc1ccc(C(=O)N2CCC(c3cc4ncc(C)nc4[nH]3)C2)cc1 (centres undefined) | 12.12
O=C1CCSCC(C(=O)N2CCOCC2)N1 (centres undefined) | -22.42
[H][C@@]12CN(CCOC)C[C@]1([H])[C@H](OC)CCN2C(=O)CCc1ccccc1 | 26.11
Cc1ccc(S(=O)(=O)N2CCOCC2C(N)=O)c(F)c1 (centres undefined) | -24.91
CC(NC(=O)c1nc(=O)[nH][nH]1)c1ccc(OCC2CC2)c(F)c1 (centres undefined) | -2.603
O=C(O)C(F)(F)F.[H][C@@]12COC[C@]1(COCC1CC1)CN(Cc1cnn(C)c1)C2 | -54.97
[H][C@]12CC[C@]([H])(CN(c3ncccn3)C1)N(C(=O)CSCCC)C2 | 14.33
O=C(c1cc[nH]n1)N(Cc1cccc(O)c1)CC1CC1 | -9.269
CNCCCNc1nc(C2CCCC2)nc2c1cnn2C | -36.25
CCCOc1cccc(NC(=O)NC2CCc3nc(C)nn3C2)c1 (centres undefined) | -150.6
COCCNc1cc(-c2ccccc2C(N)=O)c2cc[nH]c2n1 | -2.477
[H][C@]12CC[C@]([H])(CC(=O)NC1)N2C1CCSCC1 | 4.198
CCCN(CCC)C(=O)c1cnn(C)c1C | -32.53
CCOCC1CCN(C(=O)C(c2cccc(F)c2)N(C)C)CC1 (centres undefined) | -96.8
CCn1nc2c(cc1=O)CN(Cc1nc(C)c(C)o1)CC2 | 11.56
CCN(CCO)C[C@@H]1CN(c2cccc(C(F)(F)F)n2)C[C@@H]1CO | -21.08
CCc1nccn1CC(=O)Nc1cccc(N2CCCC2)c1 | -31.41
O=C(O)C(F)(F)F.[H][C@]12CCN(Cc3ccccc3)CC[C@@]1([H])S(=O)(=O)NC2 | -37.67
[H][C@@]12CS(=O)(=O)C[C@]1([H])N(C(=O)CCn1cc(C)cn1)CCN2C(=O)C(C)C | 31
O=C(O)C(F)(F)F.[H][C@]12CCN(c3ncc(C)cn3)[C@@]1([H])CCC(COCC(=O)N(C)C)O2 (some centres undefined) | -19.88
[H][C@@]12COC[C@H](c3nc(C)no3)[C@]1([H])CN(C(=O)Cc1ccccc1F)C2 | -43.19
Cn1nccc1CCC(=O)N1CCOC(c2cnccn2)C1 (centres undefined) | 2.067
CC1CCN(c2ccc(=O)n(CC(=O)N(C)Cc3ccccc3)n2)CC1 | -12.96
Cn1ncc(N2CCC(CNC(=O)[C@@H](N)c3ccccc3)CC2)cc1=O | -47.26
O=C(O)C(F)(F)F.O=C(O)C(F)(F)F.c1cc2nc(C3CCN(CC4CC4)CC3)nn2cc1N1CCCC1 | 49.41
CNC(=O)CN1C(=O)CCC12CCCN(CCc1ccccc1)C2 (centres undefined) | -13.87
c1cc(CNCC2CNc3ccnn3C2)cc(N2CCCCC2)n1 (centres undefined) | 10.27
COc1ccccc1-c1cc(NC(=O)CCS(=O)(=O)C2CCCC2)[nH]n1 | -9.508
CC(C)N1CCC2(CCCN(C(=O)c3cncn3C)C2)CC1.O=C(O)C(F)(F)F | -36.57
CCc1ccc(NC(=O)C(C)N2CCN(Cc3ncc[nH]3)CC2)cc1 (centres undefined) | -20.07
CC(C)CNC(=O)c1ccc(NC(=O)NC(C)C)cc1Cl | -37.61
[H][C@@]12CCN(Cc3cc(C)on3)C[C@@]1([H])O[C@H](c1nc(C3CC3)cs1)C2 | -53.77
Cc1oncc1C(=O)N1CCC2(CCN(Cc3cccnc3)C2=O)C1.O=C(O)C(F)(F)F (centres undefined) | -44.49
Cn1cccc1CN(C(=O)CC(CC(=O)O)c1cccs1)C1CC1 (centres undefined) | 3.029
CN1CC2(CCN(c3ncnc4c3CCNC4)CC2)OC1=O | 9.49
COc1cc(NC(=O)N(C)CC2CC2)ncn1 | 7.455
Cc1nc(C2CCCN(C(=O)c3cc(C(C)(C)C)on3)C2)no1 (centres undefined) | 0.3304
[H][C@@]12C[C@H](C(=O)Nc3cccnc3)[C@@]([H])(CN(Cc3ccc(OC)cc3)C1)O2 | -167.3
O=C(O)C(F)(F)F.O=C(O)C(F)(F)F.O=C(O)C(F)(F)F.[H][C@]12C[C@@H](CN3CCCC3)N(C)[C@@]1([H])CCN(Cc1ccoc1)C2 | -55.8
CC1CCN(C(=O)c2ccn(COc3ccc(F)cc3)n2)CC1 | -15.71
c1ccc(OCc2cscn2)c(CNC2CCc3ncnn3C2)c1 (centres undefined) | 6.05
CN(CC(=O)NC(C)(C)C)Cc1cccc2c1OCCO2 | -7.259
COc1ccccc1CNC(=O)CN(C)C(C)c1ccncn1 (centres undefined) | -20.51
COc1cc(C(C)NCc2ncccc2C)ccc1SC(F)F (centres undefined) | 10.77

Once more, the final 3:

{"structure": "CN(CC(=O)NC(C)(C)C)Cc1cccc2c1OCCO2", "effect": -7.259}
{"structure": "COc1ccccc1CNC(=O)CN(C)C(C)c1ccncn1", "stereo": "centres undefined", "effect": -20.51}
{"structure": "COc1cc(C(C)NCc2ncccc2C)ccc1SC(F)F", "stereo": "centres undefined", "effect": 10.77}